Measurements: patent publication US20080287481A1, “PROCESS FOR THE PREPARATION OF DES[…] MIXTURES” (priority 2006, published 2008)
Like-named read-outs stand apart in the source and are kept apart here.

Settings: followed by IR absorption spectra
Description: The term “stable” is used to describe an intimate mixture of desloratadine Form I and Form II that maintains the initial weight ratio of forms during formulation into a pharmaceutical dosage form and thereafter during a commercially useful period of normal storage and use, such as about one year, about 18 months, about two years, or any other desired period. […] Stability testing procedures are well known in the pharmaceutical industry.

Measured: Form I to Form II Ratio

Clc1ccc2c(c1)CCc1cccnc1C2=C1CCNCC1 [8-chloro-6,11-dihydro-11-(4-piperidylidene)-5H-benzo[5,6]cyclohepta[1,2-b]pyridine]
No change in IR absorption spectra: Long term storage for 24 months | Storage at 25 ± 5° C. and 60 ± 5% RH | Storage at 40 ± 5° C. and 70 ± 5% RH
